Laboratory results as given in patent US20120077737A1, “HEPATITIS C INHIBITOR COMPOUNDS” (priority 2009, published 2012).
Some of these results come from one statement about several compounds together.

Legend:
Conditions in all cases: statement in words
[1] = tested on: HCV genotype 1a subgenomic replicon with NS3 resistance mutation R155K; assay: HCV replicon RNA replication assay, R155K 1a; assay type: cell-based, HCV genotype 1a (strain H77), Huh-7 cells
[2] = tested on: HCV genotype 1b subgenomic replicon with NS3 resistance mutation D168V; assay: HCV replicon RNA replication assay, D168V 1b; assay type: cell-based, HCV genotype 1b (Con-1), Huh-7 cells
[3] = tested on: HCV genotype 1a subgenomic replicon with NS3 resistance mutation D168V; assay: HCV replicon RNA replication assay, D168V 1a; assay type: cell-based, HCV genotype 1a (strain H77), Huh-7 cells

Cc1c(O)ccc2c(O[C@@H]3C[C@H]4C(=O)N[C@]5(C(=O)NS(=O)(=O)C6(C)CC6)C[C@H]5/C=C\CCCCC[C@H](NC(=O)c5ccn(C)n5)C(=O)N4C3)cc(OC(C)C)nc12 [Compound 1015, (2R,6S,12Z,13aS,14aR,16aS)-2-{[7-hydroxy-8-methyl-2-(propan-2-yloxy)quinolin-4-yl]oxy}-N-[(1-methylcyclopropyl)sulfonyl]-6-{[(1-methyl-1H-pyrazol-3-yl)carbonyl]amino}-5,16-dioxo-1,2,3,6,7,8,9,10,11,13a,14,15,16,16a-tetradecahydrocyclopropa[e]pyrrolo[1,2-a][1,4]diazacyclopentadecine-14a(5H)-carboxamide]
unexpectedly good cell-based potency: cell-based potency against genotype 1a R155K resistance mutation [1] | cell-based potency against genotype 1b D168V resistance mutation [2] | cell-based potency against genotype 1a D168V resistance mutation [3]

COc1c(F)ccc2c(O[C@@H]3C[C@H]4C(=O)N[C@]5(C(=O)NS(=O)(=O)C6CC6)C[C@H]5/C=C\CCCCC[C@H](NC(=O)c5ccn(C)n5)C(=O)N4C3)cc(OC(C)C)nc12 [Compound 1016, (2R,6S,12Z,13aS,14aR,16aS)-N-(cyclopropylsulfonyl)-2-{[7-fluoro-8-methoxy-2-(propan-2-yloxy)quinolin-4-yl]oxy}-6-{[(1-methyl-1H-pyrazol-3-yl)carbonyl]amino}-5,16-dioxo-1,2,3,6,7,8,9,10,11,13a,14,15,16,16a-tetradecahydrocyclopropa[e]pyrrolo[1,2-a][1,4]diazacyclopentadecine-14a(5H)-carboxamide]
unexpectedly good cell-based potency: cell-based potency against genotype 1a R155K resistance mutation [1] | cell-based potency against genotype 1b D168V resistance mutation [2] | cell-based potency against genotype 1a D168V resistance mutation [3]

COc1ccc2c(O[C@@H]3C[C@H]4C(=O)N[C@]5(C(=O)NS(=O)(=O)C6(C)CC6)C[C@H]5/C=C\CCCCC[C@H](NC(=O)c5ccn(CC(=O)N(C)C)n5)C(=O)N4C3)cc(OC(C)C)nc2c1C [Compound 1017, (2R,6S,12Z,13aS,14aR,16aS)-6-[({1-[2-(dimethylamino)-2-oxoethyl]-1H-pyrazol-3-yl}carbonyl)amino]-2-{[7-methoxy-8-methyl-2-(propan-2-yloxy)quinolin-4-yl]oxy}-N-[(1-methylcyclopropyl)sulfonyl]-5,16-dioxo-1,2,3,6,7,8,9,10,11,13a,14,15,16,16a-tetradecahydrocyclopropa[e]pyrrolo[1,2-a][1,4]diazacyclopentadecine-14a(5H)-carboxamide]
unexpectedly good cell-based potency: cell-based potency against genotype 1a R155K resistance mutation [1] | cell-based potency against genotype 1b D168V resistance mutation [2] | cell-based potency against genotype 1a D168V resistance mutation [3]

CNC(=O)Cn1ccc(C(=O)N[C@H]2CCCCC/C=C\[C@@H]3C[C@@]3(C(=O)NS(=O)(=O)C3CC3)NC(=O)[C@@H]3C[C@@H](Oc4cc(OC(C)C)nc5c(C)c(OC)ccc45)CN3C2=O)n1 [Compound 1018, (2R,6S,12Z,13aS,14aR,16aS)-N-(cyclopropylsulfonyl)-2-{[7-methoxy-8-methyl-2-(propan-2-yloxy)quinolin-4-yl]oxy}-6-[({1-[2-(methylamino)-2-oxoethyl]-1H-pyrazol-3-yl}carbonyl)amino]-5,16-dioxo-1,2,3,6,7,8,9,10,11,13a,14,15,16,16a-tetradecahydrocyclopropa[e]pyrrolo[1,2-a][1,4]diazacyclopentadecine-14a(5H)-carboxamide]
unexpectedly good cell-based potency: cell-based potency against genotype 1a R155K resistance mutation [1] | cell-based potency against genotype 1b D168V resistance mutation [2] | cell-based potency against genotype 1a D168V resistance mutation [3]

CNC(=O)Cn1ccc(C(=O)N[C@H]2CCCCC/C=C\[C@@H]3C[C@@]3(C(=O)NS(=O)(=O)C3(C)CC3)NC(=O)[C@@H]3C[C@@H](Oc4cc(OC(C)C)nc5c(C)c(OC)ccc45)CN3C2=O)n1 [Compound 1019, (2R,6S,12Z,13aS,14aR,16aS)-2-{[7-methoxy-8-methyl-2-(propan-2-yloxy)quinolin-4-yl]oxy}-6-[({1-[2-(methylamino)-2-oxoethyl]-1H-pyrazol-3-yl}carbonyl)amino]-N-[(1-methylcyclopropyl)sulfonyl]-5,16-dioxo-1,2,3,6,7,8,9,10,11,13a,14,15,16,16a-tetradecahydrocyclopropa[e]pyrrolo[1,2-a][1,4]diazacyclopentadecine-14a(5H)-carboxamide]
unexpectedly good cell-based potency: cell-based potency against genotype 1a R155K resistance mutation [1] | cell-based potency against genotype 1b D168V resistance mutation [2] | cell-based potency against genotype 1a D168V resistance mutation [3]

COc1ccc2c(O[C@@H]3C[C@H]4C(=O)N[C@]5(C(=O)NS(=O)(=O)C6(C)CC6)C[C@H]5/C=C\CCCCC[C@H](NC(=O)c5ccc(C(C)(C)O)s5)C(=O)N4C3)cc(OC(C)C)nc2c1C [Compound 1020, (2R,6S,12Z,13aS,14aR,16aS)-6-({[5-(2-hydroxypropan-2-yl)thiophen-2-yl]carbonyl}amino)-2-{[7-methoxy-8-methyl-2-(propan-2-yloxy)quinolin-4-yl]oxy}-N-[(1-methylcyclopropyl)sulfonyl]-5,16-dioxo-1,2,3,6,7,8,9,10,11,13a,14,15,16,16a-tetradecahydrocyclopropa[e]pyrrolo[1,2-a][1,4]diazacyclopentadecine-14a(5H)-carboxamide]
unexpectedly good cell-based potency: cell-based potency against genotype 1a R155K resistance mutation [1] | cell-based potency against genotype 1b D168V resistance mutation [2] | cell-based potency against genotype 1a D168V resistance mutation [3]

COc1c(F)ccc2c(O[C@@H]3C[C@H]4C(=O)N[C@]5(C(=O)NS(=O)(=O)C6(C)CC6)C[C@H]5/C=C\CCCCC[C@H](NC(=O)c5ccn(CCF)n5)C(=O)N4C3)cc(OC(C)C)nc12 [Compound 1021, (2R,6S,12Z,13aS,14aR,16aS)-6-({[1-(2-fluoroethyl)-1H-pyrazol-3-yl]carbonyl}amino)-2-{[7-fluoro-8-methoxy-2-(propan-2-yloxy)quinolin-4-yl]oxy}-N-[(1-methylcyclopropyl)sulfonyl]-5,16-dioxo-1,2,3,6,7,8,9,10,11,13a,14,15,16,16a-tetradecahydrocyclopropa[e]pyrrolo[1,2-a][1,4]diazacyclopentadecine-14a(5H)-carboxamide]
unexpectedly good cell-based potency: cell-based potency against genotype 1a R155K resistance mutation [1] | cell-based potency against genotype 1b D168V resistance mutation [2] | cell-based potency against genotype 1a D168V resistance mutation [3]

COc1c(F)ccc2c(O[C@@H]3C[C@H]4C(=O)N[C@]5(C(=O)NS(=O)(=O)C6(C)CC6)C[C@H]5/C=C\CCCCC[C@H](NC(=O)c5ccn(CC(F)F)n5)C(=O)N4C3)cc(OC(C)C)nc12 [Compound 1022, (2R,6S,12Z,13aS,14aR,16aS)-6-({[1-(2,2-difluoroethyl)-1H-pyrazol-3-yl]carbonyl}amino)-2-{[7-fluoro-8-methoxy-2-(propan-2-yloxy)quinolin-4-yl]oxy}-N-[(1-methylcyclopropyl)sulfonyl]-5,16-dioxo-1,2,3,6,7,8,9,10,11,13a,14,15,16,16a-tetradecahydrocyclopropa[e]pyrrolo[1,2-a][1,4]diazacyclopentadecine-14a(5H)-carboxamide]
unexpectedly good cell-based potency: cell-based potency against genotype 1a R155K resistance mutation [1] | cell-based potency against genotype 1b D168V resistance mutation [2] | cell-based potency against genotype 1a D168V resistance mutation [3]

COc1c(F)ccc2c(O[C@@H]3C[C@H]4C(=O)N[C@]5(C(=O)NS(=O)(=O)C6(C)CC6)C[C@H]5/C=C\CCCCC[C@H](NC(=O)c5ccn(C(C)C)n5)C(=O)N4C3)cc(OC(C)C)nc12 [Compound 1023, (2R,6S,12Z,13aS,14aR,16aS)-2-{[7-fluoro-8-methoxy-2-(propan-2-yloxy)quinolin-4-yl]oxy}-N-[(1-methylcyclopropyl)sulfonyl]-5,16-dioxo-6-({[1-(propan-2-yl)-1H-pyrazol-3-yl]carbonyl}amino)-1,2,3,6,7,8,9,10,11,13a,14,15,16,16a-tetradecahydrocyclopropa[e]pyrrolo[1,2-a][1,4]diazacyclopentadecine-14a(5H)-carboxamide]
unexpectedly good cell-based potency: cell-based potency against genotype 1a R155K resistance mutation [1] | cell-based potency against genotype 1b D168V resistance mutation [2] | cell-based potency against genotype 1a D168V resistance mutation [3]

Cc1ccc2c(O[C@@H]3C[C@H]4C(=O)N[C@]5(C(=O)NS(=O)(=O)C6(C)CC6)C[C@H]5/C=C\CCCCC[C@H](NC(=O)c5ccn(C)n5)C(=O)N4C3)cc(OC(C)C)nc2c1Br [Compound 1024, (2R,6S,12Z,13aS,14aR,16aS)-2-{[8-bromo-7-methyl-2-(propan-2-yloxy)quinolin-4-yl]oxy}-N-[(1-methylcyclopropyl)sulfonyl]-6-{[(1-methyl-1H-pyrazol-3-yl)carbonyl]amino}-5,16-dioxo-1,2,3,6,7,8,9,10,11,13a,14,15,16,16a-tetradecahydrocyclopropa[e]pyrrolo[1,2-a][1,4]diazacyclopentadecine-14a(5H)-carboxamide]
unexpectedly good cell-based potency: cell-based potency against genotype 1a R155K resistance mutation [1] | cell-based potency against genotype 1b D168V resistance mutation [2] | cell-based potency against genotype 1a D168V resistance mutation [3]
